Measurements: patent publication US20030073699A1, “Compounds and methods to treat cardiac failure and other disorders” (priority 1998, published 2003)
At least one structure is not confirmed: it was looked up by name or label, or the drawing left a doubt.

The chains behind the UniProt entries cited, without tags or fusion partners.
UniProt Q16539, whole entry: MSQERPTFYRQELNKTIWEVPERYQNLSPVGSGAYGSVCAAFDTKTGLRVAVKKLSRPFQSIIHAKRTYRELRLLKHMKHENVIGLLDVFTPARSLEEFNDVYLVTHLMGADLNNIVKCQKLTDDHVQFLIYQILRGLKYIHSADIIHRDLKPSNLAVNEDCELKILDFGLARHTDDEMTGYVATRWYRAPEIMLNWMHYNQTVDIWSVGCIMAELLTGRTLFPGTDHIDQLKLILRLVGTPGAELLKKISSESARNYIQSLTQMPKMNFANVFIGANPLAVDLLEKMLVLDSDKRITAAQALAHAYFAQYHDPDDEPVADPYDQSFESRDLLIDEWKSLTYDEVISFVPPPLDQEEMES
UniProt Q15759, whole entry: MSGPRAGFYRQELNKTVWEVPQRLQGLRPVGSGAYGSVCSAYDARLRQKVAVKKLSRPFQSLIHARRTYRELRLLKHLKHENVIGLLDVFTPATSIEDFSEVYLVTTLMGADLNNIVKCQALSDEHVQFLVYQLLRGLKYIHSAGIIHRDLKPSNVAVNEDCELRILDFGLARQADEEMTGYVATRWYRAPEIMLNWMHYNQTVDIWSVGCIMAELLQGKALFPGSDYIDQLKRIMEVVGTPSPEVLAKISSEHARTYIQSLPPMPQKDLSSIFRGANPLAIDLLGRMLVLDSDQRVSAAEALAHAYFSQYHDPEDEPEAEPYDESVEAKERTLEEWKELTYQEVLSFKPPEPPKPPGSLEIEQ

Legend:
p38α = p38α (Homo sapiens, UniProt Q16539); experiment: p38 kinase inhibition assay, activity for p38α; format: biochemical; conditions: p38α potency of piperidinyl versus corresponding piperazinyl compound
p38β = p38β (Homo sapiens, UniProt Q15759); experiment: p38 kinase inhibition assay, specificity versus p38β; format: biochemical; conditions: specificity for p38α as compared to p38β
Method: The compounds to be tested were solubilized in DMSO and diluted into water to the desired concentrations. The p38 kinase was diluted to 10 μg/ml into a buffer containing 20 mM MOPS, pH 7.0,25 mM beta-glycerol phosphate, 2 mg/ml gelatin; 0.5 mM EGTA, and 4 mM DTT.
The reaction was carried out by mixing 20 μl test compound with 10 μl of a substrate cocktail containing 500 μg/ml peptide substrate and 0.2 mM ATP (+200 μCi/ml gamma-32P-ATP) in a 4× assay buffer. The reaction was initiated by the addition of 10 μl of p38 kinase. […] After a 40 minute incubation at room temperature, the reaction was stopped by the addition of 10 μl per reaction of 0.25 M phosphoric acid.
A portion of the reaction was spotted onto a disk of P81 phosphocellulose paper, the filters were dried for 2 minutes and then washed 4× in 75 mM H3PO4. The filters were rinsed briefly in 95% ethanol, dried, then placed in scintillation vials with liquid scintillation cocktail. […]
Counts incorporated are determined on a scintillation counter. Relative enzyme activity is calculated by subtracting background counts (counts measured in the absence of enzyme) from each result, and comparing the resulting counts to those obtained in the absence of inhibitor. IC50 values were determined with curve-fitting plots available with common software packages. Approximate IC50 values were calculated using formula […]

SMILES | Fold increase Piperidinyl/Piperazinyl (p38α) | IC50 ratio β/α (p38β)
O=C(c1cc2ccccc2[nH]1)N1CCC(Cc2ccccc2)CC1 [Piperidinyl 2] | >11.3 | –
O=C(c1ccc2[nH]ccc2c1)N1CCC(Cc2ccccc2)CC1 [Piperidinyl 5, 4-benzylpiperidinyl-indole-5-carboxamide] | 11.4 | 20.1
